No constants are given. Whether binding was seen depends on the method and setting. In cells and extracts the contact can be indirect. Some binding calls cover weakened binding; strength is not graded here.

Sequences of proteins named here, by UniProt entry; tags and fusion partners are left off.
UniProt Q16254: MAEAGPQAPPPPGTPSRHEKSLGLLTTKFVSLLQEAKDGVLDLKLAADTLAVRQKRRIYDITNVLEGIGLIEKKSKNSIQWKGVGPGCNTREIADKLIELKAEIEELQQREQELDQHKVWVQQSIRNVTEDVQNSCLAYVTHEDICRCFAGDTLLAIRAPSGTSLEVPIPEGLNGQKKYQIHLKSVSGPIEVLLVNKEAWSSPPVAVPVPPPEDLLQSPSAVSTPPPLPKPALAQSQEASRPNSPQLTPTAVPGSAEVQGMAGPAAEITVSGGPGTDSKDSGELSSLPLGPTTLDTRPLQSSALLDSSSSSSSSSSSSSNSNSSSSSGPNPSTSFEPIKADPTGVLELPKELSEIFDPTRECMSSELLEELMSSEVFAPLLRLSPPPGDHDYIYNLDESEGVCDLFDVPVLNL
UniProt Q6MZP7: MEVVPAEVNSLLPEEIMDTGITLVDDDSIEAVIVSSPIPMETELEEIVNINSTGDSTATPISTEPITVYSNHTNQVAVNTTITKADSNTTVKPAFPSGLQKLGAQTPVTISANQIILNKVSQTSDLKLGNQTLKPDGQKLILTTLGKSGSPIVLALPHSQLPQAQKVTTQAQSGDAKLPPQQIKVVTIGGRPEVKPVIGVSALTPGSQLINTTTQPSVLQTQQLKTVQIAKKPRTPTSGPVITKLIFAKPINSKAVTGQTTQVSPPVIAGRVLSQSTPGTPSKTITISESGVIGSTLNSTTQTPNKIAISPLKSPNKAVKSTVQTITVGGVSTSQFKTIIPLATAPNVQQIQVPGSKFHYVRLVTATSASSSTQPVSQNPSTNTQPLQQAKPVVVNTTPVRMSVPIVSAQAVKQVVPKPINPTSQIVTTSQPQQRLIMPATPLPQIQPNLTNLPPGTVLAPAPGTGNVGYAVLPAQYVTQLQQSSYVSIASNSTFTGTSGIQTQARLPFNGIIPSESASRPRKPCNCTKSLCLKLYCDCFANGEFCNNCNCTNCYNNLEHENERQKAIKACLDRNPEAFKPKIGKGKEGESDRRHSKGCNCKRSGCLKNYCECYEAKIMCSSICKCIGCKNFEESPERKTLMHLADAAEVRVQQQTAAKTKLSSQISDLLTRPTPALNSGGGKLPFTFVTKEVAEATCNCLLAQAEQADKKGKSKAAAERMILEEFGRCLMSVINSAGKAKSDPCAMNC
UniProt Q14186: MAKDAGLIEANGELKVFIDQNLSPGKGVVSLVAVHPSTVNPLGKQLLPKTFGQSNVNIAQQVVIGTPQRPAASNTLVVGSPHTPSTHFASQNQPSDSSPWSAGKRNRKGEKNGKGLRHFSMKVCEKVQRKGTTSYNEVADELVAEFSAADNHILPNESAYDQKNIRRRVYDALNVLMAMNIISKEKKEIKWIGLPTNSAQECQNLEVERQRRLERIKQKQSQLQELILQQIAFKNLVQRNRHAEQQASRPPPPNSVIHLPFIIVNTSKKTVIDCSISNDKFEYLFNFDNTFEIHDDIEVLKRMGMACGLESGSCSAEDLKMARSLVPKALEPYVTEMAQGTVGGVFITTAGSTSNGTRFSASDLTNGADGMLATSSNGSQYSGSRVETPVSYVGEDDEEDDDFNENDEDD
UniProt Q5TKA1: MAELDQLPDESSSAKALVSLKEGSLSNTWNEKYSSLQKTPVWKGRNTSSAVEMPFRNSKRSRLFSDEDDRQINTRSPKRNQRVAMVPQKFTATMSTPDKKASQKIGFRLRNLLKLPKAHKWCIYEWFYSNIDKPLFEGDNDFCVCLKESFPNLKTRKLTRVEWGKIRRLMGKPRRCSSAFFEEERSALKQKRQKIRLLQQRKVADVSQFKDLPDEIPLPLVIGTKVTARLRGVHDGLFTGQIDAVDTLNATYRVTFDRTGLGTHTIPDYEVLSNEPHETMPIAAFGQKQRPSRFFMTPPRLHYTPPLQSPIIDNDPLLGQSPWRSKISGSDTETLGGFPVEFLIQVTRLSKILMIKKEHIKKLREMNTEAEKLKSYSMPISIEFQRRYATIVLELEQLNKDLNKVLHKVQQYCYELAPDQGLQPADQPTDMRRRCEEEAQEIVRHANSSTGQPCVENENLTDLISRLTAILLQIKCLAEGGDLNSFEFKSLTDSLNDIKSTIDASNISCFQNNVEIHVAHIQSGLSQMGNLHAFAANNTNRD

In the assay the target is LAP-tagged human E2F4 (human) (UniProt Q16254). Briefly: co-IP; co-immunoprecipitation of GFP-E2F4 followed by immunoassay in human RPE cells.
In the case of “LIN54 (human RPE cells) (from UniProt Q6MZP7 1-749)”, the binding result is listed as “binds”.
Next, “DP-1 (human RPE cells) (from UniProt Q14186 1-410)”: “binds”; “LIN9 (human RPE cells) (from UniProt Q5TKA1 1-542)”: “binds”.

For the origin of these results see PMC6610666.
